# Measured values: the supplement of paper PMC3334620
# Over roughly 33,000 sequences, “E-score (-0.5 to 0.5)” has its median near -0.016; the highest 2% begin near 0.3. The list shows a part of the results.
# Biological target: T1, Yer184c (UniProt P39961)
# T1 sequence: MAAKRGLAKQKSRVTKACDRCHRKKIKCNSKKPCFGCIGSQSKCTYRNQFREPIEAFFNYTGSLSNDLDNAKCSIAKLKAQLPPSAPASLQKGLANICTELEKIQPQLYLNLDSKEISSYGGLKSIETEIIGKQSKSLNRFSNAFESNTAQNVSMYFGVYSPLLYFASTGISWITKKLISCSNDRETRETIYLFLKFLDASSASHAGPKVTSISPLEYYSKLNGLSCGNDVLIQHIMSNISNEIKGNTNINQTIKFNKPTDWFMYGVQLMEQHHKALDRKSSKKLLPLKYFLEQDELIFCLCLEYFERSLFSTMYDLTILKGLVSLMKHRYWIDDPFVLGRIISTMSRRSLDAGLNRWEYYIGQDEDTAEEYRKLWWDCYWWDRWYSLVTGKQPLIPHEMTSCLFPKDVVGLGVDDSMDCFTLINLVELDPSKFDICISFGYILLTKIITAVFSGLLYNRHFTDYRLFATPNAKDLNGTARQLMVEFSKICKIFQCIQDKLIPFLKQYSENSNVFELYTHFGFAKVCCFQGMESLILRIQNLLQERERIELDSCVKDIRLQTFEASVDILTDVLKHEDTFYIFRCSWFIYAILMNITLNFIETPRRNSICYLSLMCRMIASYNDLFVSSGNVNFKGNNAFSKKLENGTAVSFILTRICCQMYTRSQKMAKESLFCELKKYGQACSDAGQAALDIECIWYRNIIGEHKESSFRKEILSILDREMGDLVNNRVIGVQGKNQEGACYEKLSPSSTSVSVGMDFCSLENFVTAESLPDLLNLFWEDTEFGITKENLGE
# Assay: PBM E-score (8-mer binding enrichment) (E-score (-0.5 to 0.5)); higher = stronger / more preferred TF binding
# Settings: protein concentration: 100 nM; construct: GST-full length
# Summary of the method: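 Detection of bound protein used fluorescent anti-GST, with scans normalised by masliner. The proteins were GST-tagged yeast transcription factors applied at about 100-200 nM to universal all-10-mer Agilent arrays made double-stranded by primer extension. Each ungapped eight-base word, pooled with its reverse complement, was scored with an E-score from the Universal PBM Analysis Suite.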
row,Sequence,PBM E-score
1,ACAGGAGA,0.0689
2,ACTCCCAG,-0.105
3,GGGATTAA,0.128
4,ATAAGGAA,-0.0247
5,GTCATCTA,0.015
6,AGAAATCT,0.0283
7,GACATGCC,0.0347
8,AGCCCTAC,-0.0944
9,GTGTTGCA,0.0685
10,CTATTAAC,0.208
11,CAATAGCG,-0.141
12,ATCAACAG,0.0658
13,AGATAGAA,-0.0793
14,TAAACCCA,-0.0632
15,CTTATCGA,0.0828
16,AGCTCCAT,-0.156
17,GGTATATA,0.0952
18,CATGAGGC,-0.23
19,GTCTATAA,0.0811
20,ACACTATA,0.101
21,CTCCGTGC,0.121
22,ACAGGGAC,-0.0341
23,GTGAGCAA,-0.00836
24,GCGATGCC,-0.151

row,Sequence,PBM E-score
1,CCTAGGAC,-0.247
2,GAGTCAGC,-0.101
3,CCCCTCAC,-0.118
4,GCTTCTGA,0.0583
5,AGACATGA,-0.164
6,GGAACTTA,0.157
7,AAGAGCGT,-0.0919
8,ATTCACAC,0.0656
9,GCTACGCA,-0.0296
10,AAGATAGG,-0.226
11,AGCATATG,-0.242
12,AAGGCCCG,-0.093
13,ATTGGGGC,-0.252
14,ACAAATCG,0.151
15,AACCTATG,-0.088
16,CGGTAAGC,0.106
17,AGCTTAAA,0.118
18,CCGCAAGC,-0.131
19,GTCGCGAC,0.315
20,CACGTGCA,-0.175
21,CTTAGCAA,0.0294
22,ACTGATTC,-0.0185
23,GAAATTCA,0.171
24,AGAACATC,0.00399

# Looked up one by one from above, 2 records:
row,Sequence,PBM E-score
10,AAGATAGG,-0.226
4,GCTTCTGA,0.0583

# Next entries follow:

row,Sequence,PBM E-score
1,ACAAAGGC,-0.0429
2,AATGTGCG,-0.028
3,AACGTGCC,-0.0425
4,CTAACTTC,0.191
5,AGCTTCTG,0.0105
6,GGCACTGA,-0.0208
7,GGACCTCA,-0.121
8,GCTTCAAA,0.0629
9,ATGAGGGC,-0.167
10,AACAACAT,0.0992
11,GCGCTTAC,-0.0145
12,CACCCGCA,-0.107
13,CACAGAGC,-0.0983
14,AGATTTTG,0.174
15,GACATAAC,0.0217
16,AGTGTAGG,-0.0339
17,ACTCAAGT,-0.0658
18,TGCGGACA,0.124
19,GGGCTACA,-0.198
20,CAACGCCC,-0.167
21,TAAACAAA,0.0719
22,CGGCTTGA,0.127
23,CGCTGCTC,-0.224
24,CCTTAATC,-0.0417

row,Sequence,PBM E-score
1,AAATTCGC,0.176
2,CTACAATC,0.0899
3,CCGACAGG,0.0751
4,CAATACAG,-0.0672
5,ATCGCGTG,0.102
6,CTTTGGAA,-0.00187
7,CGGATATA,0.389
8,AAGGTTAG,-0.196
9,CGATCAGC,0.0642
10,AGATCCCG,0.299
11,GGCCAGTA,-0.11
12,CAGGGCCC,-0.198
13,CGTATTTA,0.198
14,AGGCTACA,-0.2
15,ACTCTCAA,-0.034
16,CCTTACCA,-0.138
17,CCAGCACC,-0.316
18,ACTTAAAG,-0.102
19,AATGTTAT,0.184
20,ACCACCCC,-0.313
21,CACCTCTA,-0.0197
22,CTGTTAAC,0.194

# Reformatted tab-delimited: entries from further up
row	Sequence	PBM E-score
12	CAGGGCCC	-0.198
13	CGTATTTA	0.198
